Measured data: PubChem BioAssay AID1259327 (Drosophila RNAi Screening Center, 2017)
In all, the deposit lists about 3,100 reagents; shown is a part drawn at random. In the full data, 378 (12%) were called active. 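Hits include both directions; z-score sign shows ATP rise or fall; raw luminescence values are not plate-normalised.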 Names joined by + are all predicted targets of the reagent. Not stated in the record: the amount of reagent.

Screen: 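Baseline ATP after transmembrane-protein gene knock-down with water vehicle only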
System: Drosophila S2R+ cells
Knock-down reagent: long dsRNA against Drosophila genes
Time to read-out: 5 days (water added on day 4, read one day later)
Treatment: water added as vehicle, no metal, one day before read-out
Measurement: 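Total ATP measured by luciferase light, scaled to plate mean, duplicates averaged, then z-scored across plates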
Direction: ATP z-score: higher = more total ATP than typical wells; ATP luminescence: higher = more total ATP
Hit rule: 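a hit is any knock-down whose absolute ATP z-score is greater than 1.5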
Meaning of the calls: active = hit: ATP up or down; inactive = no clear ATP change

| gene | dsRNA | ATP z-score, duplicate mean | ATP luminescence, replicate 1 (RLU) | ATP luminescence, replicate 2 (RLU) | outcome |
| --- | --- | --- | --- | --- | --- |
| CG5421 | DRSC02858 | 0.492 | 7.96e5 | 7.61e5 | inactive |
| CG5421 | DRSC24636 | 0.592 | 1.05e6 | 7.98e5 | inactive |
| Gp210 | DRSC04861 | -0.955 | 5.71e5 | 4.95e5 | inactive |
| Gp210 | DRSC39541 | 0.985 | 4.46e5 | 5.86e5 | inactive |
| CG31221 | DRSC16217 | 0.234 | 3.16e5 | 7.72e5 | inactive |
| CG31221 | DRSC23748 | 0.638 | 9.35e5 | 8.67e5 | inactive |
| VGlut | DRSC21821 | -1.14 | 4.83e5 | 4.84e5 | inactive |
| VGlut | DRSC39749 | 0.0249 | 4.54e5 | 4.81e5 | inactive |
| Gr33a | DRSC02589 | -0.367 | 6.86e5 | 6.88e5 | inactive |
| Gr33a | DRSC39756 | -0.444 | 4.60e5 | 4.09e5 | inactive |
| Inx6 | DRSC20579 | 0.0489 | 7.70e5 | 7.24e5 | inactive |
| Inx6 | DRSC26299 | 0.498 | 9.16e5 | 9.08e5 | inactive |
| PGRP-SA | DRSC19420 | -1.91 | 6.51e5 | 6.21e5 | active |
| ldd | DRSC20558 | -0.236 | 6.99e5 | 7.36e5 | inactive |
| ldd | DRSC22696 | -0.48 | 4.86e5 | 5.93e5 | inactive |
| CG8195 | DRSC07103 | -0.334 | 6.98e5 | 6.92e5 | inactive |
| Gr93b | DRSC22063 | -1.94 | 4.53e5 | 3.77e5 | active |
| Gr93b | DRSC39438 | 2.14 | 6.03e5 | 5.86e5 | active |
| Cds + Setx | DRSC27090 | -1.49 | 9.11e5 | 1.02e6 | inactive |
| Tmem63 | DRSC06063 | -0.902 | 5.80e5 | 4.96e5 | inactive |
| Tmem63 | DRSC27402 | 0.196 | 8.80e5 | 1.15e6 | inactive |
| Ptp4E | DRSC18701 | -0.536 | 6.57e5 | 6.43e5 | inactive |
| Ptp4E | DRSC36632 | -0.634 | 5.66e5 | 4.85e5 | inactive |
| Ptp4E | DRSC36633 | -1.04 | 4.99e5 | 4.84e5 | inactive |
| CG42542 | DRSC15549 | -0.914 | 6.22e5 | 6.01e5 | inactive |
| CG42542 | DRSC26676 | -2.2 | 9.69e5 | 9.69e5 | active |
| Or45a | DRSC07487 | -1.07 | 4.90e5 | 5.55e5 | inactive |
| Or45a | DRSC27527 | -0.198 | 8.13e5 | 8.77e5 | inactive |
| senju | DRSC02366 | -0.848 | 6.47e5 | 6.26e5 | inactive |
| senju | DRSC39769 | 0.383 | 4.96e5 | 5.17e5 | inactive |
| Ptpmeg2 | DRSC18277 | -0.435 | 6.05e5 | 6.00e5 | inactive |
| Ptpmeg2 | DRSC23303 | 0.256 | 5.07e5 | 6.97e5 | inactive |
| Ptpmeg2 | DRSC26646 | -0.676 | 8.83e5 | 1.08e6 | inactive |
| OtopLc | DRSC18132 | 0.533 | 7.50e5 | 6.95e5 | inactive |
| OtopLc | DRSC25756 | -0.914 | 7.14e5 | 7.12e5 | inactive |
| Nct | DRSC16172 | -0.0973 | 7.41e5 | 6.52e5 | inactive |
| Nct | DRSC39647 | 0.308 | 4.33e5 | 5.42e5 | inactive |
| CG8034 | DRSC29895 | -1.14 | 4.58e5 | 5.07e5 | inactive |
| ppk5 | DRSC11492 | -0.803 | 8.06e5 | 7.23e5 | inactive |
| ppk5 | DRSC39548 | 0.81 | 5.72e5 | 4.66e5 | inactive |
| Eaat1 | DRSC03321 | 1.23 | 8.44e5 | 8.69e5 | inactive |
| Eaat1 | DRSC39607 | 0.339 | 5.13e5 | 4.63e5 | inactive |
| tor | DRSC07707 | -0.0798 | 5.50e5 | 6.75e5 | inactive |
| tor | DRSC36623 | 1.52 | 6.87e5 | 7.31e5 | active |
| tor | DRSC36624 | -1.01 | 5.36e5 | 4.52e5 | inactive |
| sing + Axs | DRSC19333 | -0.293 | 6.78e5 | 7.45e5 | inactive |
| sing + Axs | DRSC39847 | -0.462 | 4.58e5 | 4.34e5 | inactive |
| mri | DRSC08259 | -0.617 | 9.03e5 | 4.20e5 | inactive |
| mri | DRSC27787 | 0.0631 | 8.53e5 | 8.38e5 | inactive |
| Alg9 | DRSC14407 | -0.0303 | 7.29e5 | 6.76e5 | inactive |
| Alg9 | DRSC39513 | 0.475 | 4.23e5 | 5.42e5 | inactive |
| CG14694 | DRSC14917 | -0.162 | 3.08e5 | 7.04e5 | inactive |
| Gle1 | DRSC06485 | 0.908 | 8.10e5 | 8.46e5 | inactive |
| Gle1 | DRSC29960 | -1.15 | 4.54e5 | 5.10e5 | inactive |
| COX7AL | DRSC25198 | -0.271 | 8.36e5 | 7.48e5 | inactive |
| CG8237 | DRSC07119 | 0.732 | 8.08e5 | 8.11e5 | inactive |
| CG8237 | DRSC26686 | 4.61 | 7.57e5 | 8.41e5 | active |
| Gr57a | DRSC06401 | 1.82 | 8.43e5 | 7.26e5 | active |
| CG14234 | DRSC19317 | 1.15 | 6.59e5 | 7.88e5 | inactive |
| CG14234 | DRSC19589 | 0.0926 | 7.36e5 | 7.70e5 | inactive |
| mrva | DRSC21842 | 1.02 | 7.98e5 | 5.33e5 | inactive |
| mrva | DRSC25508 | -0.829 | 6.61e5 | 8.35e5 | inactive |
| Orai | DRSC22061 | 0.458 | 6.04e5 | 6.33e5 | inactive |
| Orai | DRSC39837 | 0.751 | 5.21e5 | 5.43e5 | inactive |
| Pex3 | DRSC10731 | -1.88 | 4.55e5 | 6.08e5 | active |
| CG14691 | DRSC14914 | -1.43 | 2.32e5 | 6.14e5 | inactive |
| CG14691 | DRSC27957 | 1.02 | 7.42e5 | 8.67e5 | inactive |
| GluClalpha | DRSC16680 | -0.921 | 2.51e5 | 6.79e5 | inactive |
